From PMC12040169 (PLOS Biology, 2025)
The other results are listed elsewhere or left out.

system: T1, CTL2-GFP (C. trachomatis L2/434/Bu, GFP-expressing); set-up: species or system HeLa; Intracellular C. trachomatis growth in HeLa cells, bulk GFP fluorescence relative to DMSO; settings: bulk GFP, single well; 28.5 h, 10 µM; inhibitor
T1 construct: L2/434/Bu, GFP-expressing

Row | SMILES | % of control remaining
1 | COc1ccc(-c2cnc3[nH]c(=O)n(Cc4ccccc4)c3n2)cc1 [CBK064210] | 179.314%
2 | CC(NC(=O)Cn1cnc2ccccc21)c1ccccn1 (stereo not drawn) [CBK281884] | 97.3752%
3 | CCCc1cc(C(=O)NC(c2ccccc2)c2cccnc2)[nH]n1 (stereo not drawn) [CBK282462] | 129.091%
4 | O=C1CCCN1c1ccc(CN2CCN(C3CCCC3)C(=O)C2)cc1 [CBK281908] | 149.562%
5 | O=C(COC(=O)c1cc(S(=O)(=O)N2CCCCC2)c(Cl)cc1Cl)c1ccccc1 [CBK261668] | 96.5619%
6 | CN(CC(=O)N1CCOCC1)S(=O)(=O)c1ccc2ccccc2c1 [CBK266946] | 149.574%
7 | OCCN1CCN(c2ccc(/C=C/c3ccccc3)cn2)CC1 [CBK036849] | 184.066%
8 | CCCc1ccc(N(C)C(=O)c2ccc(C(C)(C)C)cc2)cc1 [CBK161612] | 79.7881%
9 | COc1cc(Nc2cc(-c3cccc(N)c3)nc3ccnn23)cc(OC)c1OC [CBK037236] | 138.102%
10 | C=CCN1CC2(c3ccccc3)CN(CC=C)CC(c3ccccc3)(C1)C2=O [CBK265987] | 127.197%
11 | Cc1ccc2c(c1)C(NC(=O)C1CC1C)CC1(CCOCC1)O2 (stereo not drawn) [CBK284880] | 119.298%
12 | CCn1c(C)nn(-c2nc3c(Cl)cccc3s2)c1=O [CBK026010] | 125.522%
13 | Nn1cnn2c(SCC(=O)Nc3ccc(Cl)cc3)nnc12 [CBK025688] | 84.6268%
14 | CC1CN(c2ccc(CNc3ncccc3C#N)cn2)CCO1 (stereo not drawn) [CBK305957] | 101.033%
15 | O=c1[nH]c2ncc(-c3ccc(-c4ccccc4)cc3)nc2n1Cc1cccnc1 [CBK064282] | 200.998%
16 | CS(=O)(=O)Nc1cc2ccccc2c(-c2ccncc2)n1 [CBK085746] | 118.548%
17 | O=C(O)CCCn1cc(NC(=O)Cc2ccccc2F)cn1 [CBK270119] | 94.6366%
18 | COc1cc(/C=N/n2cnnc2)ccc1OCc1cccc(C(=O)O)c1 [CBK264249] | 101.526%
19 | O=[N+]([O-])c1ccc(N2CCN(S(=O)(=O)Cc3ccccc3)CC2)cc1N1CCN(Cc2ccccc2)CC1 [CBK264951] | 100.792%
20 | COc1cccc(C(NC(=O)C2CCN(C(=O)c3ccccc3)CC2)c2ccccn2)c1 (stereo not drawn) [CBK060036] | 114.699%
21 | Cc1sc2nc(C(C)C)n(C3CCNCC3)c(=O)c2c1C [CBK282407] | 133.014%
22 | CCNC(=O)Nc1ccc2ccc(-c3cccnc3)nc2n1 [CBK070652] | 92.4864%
23 | O=C(c1nccc2ccccc12)N1CCN(Cc2ccccc2)CC1 [CBK200176] | 128.772%
24 | COCCNC(=O)c1ccc(-c2cc(C(C)C)ccc2OC)nc1N(C)C [CBK106061] | 106.553%
25 | CC1CCN(CC(O)c2ccc3c(c2)CCCN3C(=O)C2CC2)CC1 (stereo not drawn) [CBK282488] | 136.946%
26 | CC1(CNC(=O)c2ccc(N3CCCCC3)cc2)COC1 [CBK281746] | 106.554%

16 entries from above, sorted by SMILES length, rising:
Row | SMILES | % of control remaining
2 | CC(NC(=O)Cn1cnc2ccccc21)c1ccccn1 (stereo not drawn) [CBK281884] | 97.3752%
14 | CC1CN(c2ccc(CNc3ncccc3C#N)cn2)CCO1 (stereo not drawn) [CBK305957] | 101.033%
13 | Nn1cnn2c(SCC(=O)Nc3ccc(Cl)cc3)nnc12 [CBK025688] | 84.6268%
7 | OCCN1CCN(c2ccc(/C=C/c3ccccc3)cn2)CC1 [CBK036849] | 184.066%
23 | O=C(c1nccc2ccccc12)N1CCN(Cc2ccccc2)CC1 [CBK200176] | 128.772%
11 | Cc1ccc2c(c1)C(NC(=O)C1CC1C)CC1(CCOCC1)O2 (stereo not drawn) [CBK284880] | 119.298%
6 | CN(CC(=O)N1CCOCC1)S(=O)(=O)c1ccc2ccccc2c1 [CBK266946] | 149.574%
25 | CC1CCN(CC(O)c2ccc3c(c2)CCCN3C(=O)C2CC2)CC1 (stereo not drawn) [CBK282488] | 136.946%
24 | COCCNC(=O)c1ccc(-c2cc(C(C)C)ccc2OC)nc1N(C)C [CBK106061] | 106.553%
1 | COc1ccc(-c2cnc3[nH]c(=O)n(Cc4ccccc4)c3n2)cc1 [CBK064210] | 179.314%
9 | COc1cc(Nc2cc(-c3cccc(N)c3)nc3ccnn23)cc(OC)c1OC [CBK037236] | 138.102%
10 | C=CCN1CC2(c3ccccc3)CN(CC=C)CC(c3ccccc3)(C1)C2=O [CBK265987] | 127.197%
15 | O=c1[nH]c2ncc(-c3ccc(-c4ccccc4)cc3)nc2n1Cc1cccnc1 [CBK064282] | 200.998%
20 | COc1cccc(C(NC(=O)C2CCN(C(=O)c3ccccc3)CC2)c2ccccn2)c1 (stereo not drawn) [CBK060036] | 114.699%
5 | O=C(COC(=O)c1cc(S(=O)(=O)N2CCCCC2)c(Cl)cc1Cl)c1ccccc1 [CBK261668] | 96.5619%
19 | O=[N+]([O-])c1ccc(N2CCN(S(=O)(=O)Cc3ccccc3)CC2)cc1N1CCN(Cc2ccccc2)CC1 [CBK264951] | 100.792%

Later entries:

Row | SMILES | % of control remaining
27 | COC(=O)c1cn([C@H]2CO[C@H]3[C@@H]2OC[C@H]3OC(=O)Nc2ccccc2)nn1 [CBK289492] | 118.545%
28 | Cc1noc(C)c1CC(=O)Nc1nc2c(cc1C#N)CCCC2 [CBK306429] | 91.6921%
29 | COc1cc(CNc2nc(-c3c(C)cccc3C)cn3ccnc23)cc(OC)c1OC [CBK037415] | 165.71%
30 | COc1ccc([C@@]23CC[C@@H](NS(=O)(=O)Cc4ccccc4)C[C@@H]2N(C)CC3)cc1OC [CBK056665T] | 96.7553%
31 | O=C1N[C@@H](Cc2ccc(F)cc2)C(=O)N2CCN(C(=O)c3cccc(F)c3)C[C@H]12 [CBK289600] | 101.511%
32 | O=C(NS(=O)(=O)c1ccccc1)c1ccccc1 [CBK288429] | 87.4295%
33 | O=C1CC(c2ccc3c(c2)OCO3)c2ccc3ccccc3c2N1 (stereo not drawn) [CBK087469] | 100.976%
34 | O=c1cc(O)c2cc([N+](=O)[O-])ccc2n1CCc1ccccc1 [CBK291165] | 140.225%
35 | CCCCN1CCC(CNc2cc(C(F)(F)F)c3scc(C(=O)NC4CCC4)c3n2)CC1 [CBK034026C] | 99.9775%
36 | COc1ccc2[nH]cc(CCNC(=O)CC(C)O)c2c1 (stereo not drawn) [CBK116201] | 102.659%
37 | COc1cccc(CC(=O)Nc2ncccc2O)c1 [CBK305047] | 93.8277%
38 | C[C@@H](Cn1nc2c(cc1=O)CCCC2)NC(=O)c1cccc(F)c1 [CBK284561] | 157.109%
39 | CN1CC(=O)N2CCOC(C2)c2cccc(n2)NC(=O)C/C=C/CC2(CCN(Cc3ncc[nH]3)CC2)C1=O (stereo not drawn) [CBK292196] | 145.638%
40 | CN1CCC(OCCCn2ccnc2-c2nccn2C)CC1 [CBK307683] | 115.245%
41 | O=C(CCN1C(=O)/C(=C\C=C\c2ccccc2)SC1=S)Nc1cc(Cl)ccc1O [CBK264792] | 118.112%
42 | Cn1nnnc1SCC(=O)Nc1ccc(Cl)c(Cl)c1 [CBK058218] | 106.616%
43 | COc1cc(CNc2nnn[nH]2)cc(Cl)c1OC [CBK288087] | 131.134%
44 | CCOCCn1c(=O)c2c(nc3oc(C(C)(C)C)cn32)n(C)c1=O [CBK307567] | 123.98%
45 | Cc1nc(CCNc2ccc(-c3nc(C)c(C)c(=O)[nH]3)cn2)cs1 [CBK305497] | 93.0834%
46 | N#C/C(=C\c1ccc(OCC(=O)c2ccccc2)cc1)c1nc(-c2cccs2)cs1 [CBK266765] | 146.789%
47 | COc1ccccc1-c1nnc(SCc2cccc(C(=O)O)c2)[nH]1 [CBK269952] | 141.798%
48 | CCc1c(C)sc(NC(=O)CSc2nnnn2C)c1C(=O)OC [CBK270312] | 142.337%
49 | COC(=O)c1ccccc1S(=O)(=O)Nc1nnn[nH]1 [CBK021321] | 152.157%
50 | COc1ccc(NC(=O)CCSCCC(=O)O)cc1S(=O)(=O)N1CCCCC1 [CBK296655] | 152.801%
51 | Cc1nc(C)n(C(C)CNC(=O)Cc2coc3cc(C)c(C)cc23)n1 (stereo not drawn) [CBK282577] | 115.355%
52 | Cc1cc(NS(=O)(=O)c2ccc(NC(=S)NC3CCCCC3)cc2)no1 [CBK268157] | 60.4801%

A section from the list above:
Row | SMILES | % of control remaining
13 | Nn1cnn2c(SCC(=O)Nc3ccc(Cl)cc3)nnc12 [CBK025688] | 84.6268%
14 | CC1CN(c2ccc(CNc3ncccc3C#N)cn2)CCO1 (stereo not drawn) [CBK305957] | 101.033%

(listing goes on)

Row | SMILES | % of control remaining
53 | OC1CCC(Nc2cncc(-c3ccc(F)cc3F)n2)CC1 (stereo not drawn) [CBK065835] | 98.1055%
54 | CCNC(=O)N1CCc2c([nH]c3ccc(OC)cc23)C12CCN(CCOc1ccccc1)C2 (stereo not drawn) [CBK061690] | 119.131%
55 | COc1cncc(C(NC(=O)Cc2cn3ccsc3n2)[C@H]2C[C@H](O)C2)c1 (stereo partly drawn) [CBK306642] | 100.37%
56 | CC1CCCN(c2nc3nc[nH]c(=O)c3s2)C1 (stereo not drawn) [CBK288120] | 148.779%
57 | CNS(=O)(=O)c1cc(C(=O)NC2CCCc3ccccc32)n(C)c1 (stereo not drawn) [CBK305048] | 105.717%
58 | c1ccc(CN2CCN(c3ccc(Nc4cc(-c5ccncc5)ncn4)cc3)CC2)cc1 [CBK037727] | 184.432%
59 | COc1ccc(CN2CCCC(c3nc(C)n4ccccc34)C2)cc1 (stereo not drawn) [CBK282984] | 123.111%
60 | COC(=O)C(NC(=O)c1cnc(-c2cccc(C(F)(F)F)c2)c(-c2ccncc2)c1)c1ccccc1 (stereo not drawn) [CBK037624] | 180.34%
61 | O=C(O)Cc1csc(SCc2cc(F)cc3c2OC(c2ccccc2)OC3)n1 (stereo not drawn) [CBK295158] | 152.678%
62 | CCc1nnc(COC(=O)c2ccccc2NC(=O)Cc2ccccc2)o1 [CBK296762] | 156.745%
63 | COc1cccc([C@H]2CC[C@H](N(CCN(C)C)C(=O)Nc3cc(F)ccc3F)CC2)c1OC [CBK050184] | 96.5797%
64 | CCOC(=O)C(NC(=O)c1c(C)nn(C)c1C)c1cccc(C)c1C (stereo not drawn) [CBK304253] | 105.44%
65 | CCOC(=O)c1cnn2c(C)cc(C)nc12 [CBK101119] | 124.292%
66 | C=CCN(C)C(=O)[C@H]1C[C@@H](O)[C@H](O)[C@@H]2N=C(Nc3cc(C)cc(C)c3)S[C@@H]21 [CBK288948] | 122.359%
67 | COc1ccc(C2(C(=O)NCCc3c[nH]cn3)CC2)cc1 [CBK149834] | 115.353%
68 | CN(C)C1c2cccc3cccc(c23)C1NS(C)(=O)=O (stereo not drawn) [CBK265851] | 146.01%
69 | Cc1nc(C(F)(F)F)ccc1C(=O)N1C=CC(C(F)(F)F)=NCC1 [CBK057187] | 100.812%
70 | CCn1c(CNC(=O)C(C)Cn2cc(Cl)cn2)nc2ccccc21 (stereo not drawn) [CBK281392] | 126.896%
71 | COc1ccnc(Cn2ncc(N3CCCC3)cc2=O)c1 [CBK304379] | 132.467%
72 | COc1ccc(-c2cncc(NCc3ccncc3)n2)cc1 [CBK065394] | 90.587%
73 | Cc1cnn(CCNc2cc(C(C)C)nc3ccnn23)c1 [CBK306792] | 131.262%
74 | O=S(=O)(c1ccc(Oc2ccc(S(=O)(=O)N3CCCCCC3)cc2)cc1)N1CCCCCC1 [CBK261729] | 91.9118%
75 | CC(CNC(=O)Cn1nc(C(F)(F)F)c2c1CCC2)N1CCCC1 (stereo not drawn) [CBK282212] | 142.123%
76 | C(=C\c1ccccc1)/CN1CCN(CCCc2ccccc2)CC1 [CBK261897] | 100%
77 | COCCN1CCOC2(CCN(C(=O)c3ccc4ccccc4c3)CC2)C1c1ccccc1O (stereo not drawn) [CBK116232] | 81.2722%
78 | CO[C@H]1CNC[C@@H]1NC(=O)c1cccc2c1NCCC2 [CBK307421] | 112.212%
